Results taken from paper PMC6978808, “In Situ Structure of an Intact Lipopolysaccharide-Bound Bacterial Surface Layer” (Cell, 2020).
No constants are given. Whether binding was seen depends on the method and setting.

Target: N-terminal domain of RsaA (RsaANTD) (Caulobacter crescentus) (UniProt P35828)
Assay: SEC; gel filtration of purified RsaANTD alone, without LPS or PS (Figure S1D); small particles on cryo-EM grids; both purified

B1: N-terminal domain of RsaA (RsaANTD) (domain or fragment, Caulobacter crescentus)
chain: AYTTAQLVTAYTNANLGKAPDAATTLTLDAYATQTQTGGLSDAAALTNTLKLVNSTTAVAIQTYQFFTGVAPSAAGLDFLVDSTTNTNDLNDAYYSKFAQENRFINFSINLATGAGAGATAFAAAYTGVSYAQTVATAYDKIIGNAVATAAGVDVAAAVAFLSRQANIDYLTAFVRANTPFTAAADIDLAVKAALIGTILNAATVSGIGGYATATAAMINDLSDGALSTDNAAGVNLFTAYPSSGVSGSEN
notes: S-layer protein RsaA of Caulobacter crescentus (1026 residues), N-terminal domain; the introduction defines RsaANTD as residues 1-249; residues 2-243 are built in the cryo-EM model; Cleavage by TEV protease after Gln would leave Glu-Asn-Leu-Tyr-Phe-Gln; also called inner domain of the S-layer; source: C. crescentus rsaATEV250 strain
  binding: no binding (condition: without LPS or PS added)
